{"sequences": {"note": "By UniProt entry, the sequences of proteins in these tests, tags left out. Residues count along the entry.", "UniProt Q9NYJ7, residues 27-618": "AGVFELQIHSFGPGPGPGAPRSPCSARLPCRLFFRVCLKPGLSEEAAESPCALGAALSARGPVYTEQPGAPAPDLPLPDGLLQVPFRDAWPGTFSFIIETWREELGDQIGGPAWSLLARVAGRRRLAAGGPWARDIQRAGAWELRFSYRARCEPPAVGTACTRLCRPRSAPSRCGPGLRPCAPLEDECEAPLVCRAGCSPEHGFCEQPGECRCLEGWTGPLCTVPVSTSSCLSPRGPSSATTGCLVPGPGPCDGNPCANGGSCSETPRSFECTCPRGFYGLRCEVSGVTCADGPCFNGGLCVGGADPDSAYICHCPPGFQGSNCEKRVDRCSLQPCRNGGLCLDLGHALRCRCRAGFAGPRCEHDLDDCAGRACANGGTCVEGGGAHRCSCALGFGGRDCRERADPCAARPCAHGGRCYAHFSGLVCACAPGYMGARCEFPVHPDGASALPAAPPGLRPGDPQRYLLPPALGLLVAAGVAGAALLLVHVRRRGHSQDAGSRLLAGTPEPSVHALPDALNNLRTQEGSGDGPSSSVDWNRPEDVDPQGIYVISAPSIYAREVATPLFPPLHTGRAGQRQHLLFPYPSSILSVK"}, "source": "patent US20260055206A1", "about": "(GENSUN BIOPHARMA, published 2026)", "binders": {"B1": {"name": "DLL3.2 (humanized anti-DLL3 antibody) (antibody, V domains shown)", "VH": "QVQLVQSGAEVKKPGASVKVSCKATDYIFSNYYIEWVRQAPGQGLEWMGEILPGTGNTVYNEKFKDRVTMTVDTSTSTVYMELSSLRSEDTAVYYCARWGDYALFANWGQGTLVTVSS", "VL": "DIQMTQSPSTLSASVGDRVTITCKASQNVGTNVAWYQQKPGKAPKALIYSASYRYSGVPSRFSGSGSGTEFTLTISSLQPDDFATYYCQQYNSYPFTFGQGTKLEIK"}}, "target": "human DLL3 (over-expressed on CHO-K1 cells) (human) (UniProt Q9NYJ7)", "test": "flow cytometry (iQue) on CHO-K1 cells over-expressing human DLL3, PE anti-human IgG Fc secondary", "note": "Results are given in words; binding and its absence hold for the method and conditions named. Some binding calls cover weakened binding; strength is not graded here.", "data": [{"binder": "B1", "values": [{"measurement": "binding", "result": "binds"}]}]}
